Source: patent publication US20260139057A1 (University of California, published 2026)
Substitutions are numbered along the chain they refer to. Results are given in words; binding and its absence hold for the method and conditions named. Some binding calls cover weakened binding; strength is not graded here.

By UniProt entry, the sequences of proteins in these tests, tags left out. Where a name states a change or a piece, a line headed by the entry shows the natural chain unless it says otherwise.
UniProt P43406: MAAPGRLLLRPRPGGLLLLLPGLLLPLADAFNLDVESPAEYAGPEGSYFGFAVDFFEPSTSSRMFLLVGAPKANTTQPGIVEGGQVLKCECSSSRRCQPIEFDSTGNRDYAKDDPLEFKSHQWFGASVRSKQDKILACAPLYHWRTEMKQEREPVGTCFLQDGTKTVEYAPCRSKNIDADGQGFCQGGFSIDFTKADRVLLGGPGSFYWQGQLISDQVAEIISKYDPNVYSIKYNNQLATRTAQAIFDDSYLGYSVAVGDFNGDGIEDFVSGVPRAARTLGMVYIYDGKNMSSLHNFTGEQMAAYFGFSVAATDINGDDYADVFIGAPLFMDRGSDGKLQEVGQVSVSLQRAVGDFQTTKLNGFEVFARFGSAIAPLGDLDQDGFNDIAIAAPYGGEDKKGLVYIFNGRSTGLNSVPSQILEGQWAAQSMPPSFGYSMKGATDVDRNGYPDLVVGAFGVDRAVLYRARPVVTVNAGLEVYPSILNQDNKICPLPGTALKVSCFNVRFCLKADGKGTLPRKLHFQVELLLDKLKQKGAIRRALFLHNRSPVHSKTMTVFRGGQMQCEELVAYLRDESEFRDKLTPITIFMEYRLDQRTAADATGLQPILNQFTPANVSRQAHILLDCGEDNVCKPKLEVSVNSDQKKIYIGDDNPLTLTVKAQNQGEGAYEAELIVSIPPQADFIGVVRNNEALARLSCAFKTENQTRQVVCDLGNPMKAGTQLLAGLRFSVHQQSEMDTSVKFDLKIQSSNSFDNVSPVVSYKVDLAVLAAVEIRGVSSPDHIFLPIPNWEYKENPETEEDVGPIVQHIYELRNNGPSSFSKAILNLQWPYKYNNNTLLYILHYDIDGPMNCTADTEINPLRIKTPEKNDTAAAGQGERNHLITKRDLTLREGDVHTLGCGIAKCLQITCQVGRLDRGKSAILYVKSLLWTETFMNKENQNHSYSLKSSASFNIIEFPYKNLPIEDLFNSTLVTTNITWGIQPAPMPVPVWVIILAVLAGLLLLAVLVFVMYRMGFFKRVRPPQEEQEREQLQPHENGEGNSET
UniProt Q0VBD0: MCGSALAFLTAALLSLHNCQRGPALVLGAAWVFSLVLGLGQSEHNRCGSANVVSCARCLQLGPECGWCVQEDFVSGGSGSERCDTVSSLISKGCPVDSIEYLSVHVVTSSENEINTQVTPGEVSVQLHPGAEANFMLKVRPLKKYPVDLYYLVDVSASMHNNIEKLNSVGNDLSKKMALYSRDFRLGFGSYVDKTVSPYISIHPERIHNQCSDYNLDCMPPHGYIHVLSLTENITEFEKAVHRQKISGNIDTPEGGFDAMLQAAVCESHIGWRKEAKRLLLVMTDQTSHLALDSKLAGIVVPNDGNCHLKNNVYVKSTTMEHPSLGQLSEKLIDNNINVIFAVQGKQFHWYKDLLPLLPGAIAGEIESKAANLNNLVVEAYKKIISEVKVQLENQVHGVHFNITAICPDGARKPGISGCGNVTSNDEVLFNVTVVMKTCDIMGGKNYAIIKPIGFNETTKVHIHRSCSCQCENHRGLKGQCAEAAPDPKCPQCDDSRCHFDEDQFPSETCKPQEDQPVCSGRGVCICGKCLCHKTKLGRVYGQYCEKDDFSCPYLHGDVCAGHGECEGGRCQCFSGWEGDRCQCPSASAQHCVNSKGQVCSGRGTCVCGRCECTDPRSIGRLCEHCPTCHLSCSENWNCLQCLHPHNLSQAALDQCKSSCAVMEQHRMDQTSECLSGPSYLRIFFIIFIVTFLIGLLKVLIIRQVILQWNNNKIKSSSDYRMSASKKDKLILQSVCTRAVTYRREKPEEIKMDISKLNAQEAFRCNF

B1: HuC6D4F12 (format not stated) (antibody, V domains shown)
VH: QIQLVQSGAEVKKPGASVKISCKASGYTFTKYSMHWVRQAPGQGLEWVARINTETGEPTFADDFRGRFTVTLDTSTSTAYLEIRSLRSDDTAVYFCAIFYYGRDTWGQGTTLTVSS
VL: EIVMTQSPATLSVSPGERVTMSCKSSQSLLHSRSRKNYLAWYQQKPGQAPRLLIYWASTRESGVPARFSGSGSGTEFTLTISSVQSEDFAVYYCKQSYNLLSFGQGTVLEIKR
notes: also called HuF12; huF12
B2: HuC6D4 RGD3, mouse IgG2a (antibody, V domains shown)
VH: B1 VH with K31D
VL: EIVMTQSPATLSVSPGERVTMSCKSSQSLLGRGDLGRLKKNALAWYQQKPGQAPRLLIYWASTRESGVPARFSGSGSGTEFTLTISSVQSEDFAVYYCKQSYNLLSFGQGTVLEIKR
notes: Mouse IgG2a
B3: F12 RGD1, human IgG4 (antibody, V domains shown)
VH: B1 VH
VL: DIVMTQSPSSLAVSAGEKVTMSCKSSQSLLRRGDLATIHGNALAWYQQKPGQSPRLLIYWASTRESGVPDRFTGSGSGTDFTLTISSVQAEDLAVYYCKQSYNLLSFGAGTKLELKA
B4: H4C8 RGD3, human IgG4 (antibody, V domains shown)
VH: QVQLVQSGAEVKKPGASVKVSCKVSGYTLTRQSMHWVRQAPGKGLEWMGRINTETGEPTYAQKFQGRVTMTQDTSTDTAYMELSSLRSEDTAVYFCAIFYYGRDTWGQGTTVTVSS
VL: B2 VL with M21L, S66T, V88L, V112K, L113V
notes: also called H4C8 RGD3 IgG4
B5: H4C8 RGD1, human IgG4 (antibody, V domains shown)
VH: B4 VH
VL: EIVMTQSPATLSVSPGERVTLSCKSSQSLLRRGDLATIHGNALAWYQQKPGQAPRLLIYWASTRETGVPARFSGSGSGTEFTLTISSLQSEDFAVYYCKQSYNLLSFGQGTKVEIKR
notes: also called H4C8 RGD1 IgG4

Key:
[1] = molecular target: mouse αvβ8 on MC38 cells (mouse) (UniProt P43406+Q0VBD0); test: flow cytometry on MC38 cells, HuF12 followed by anti-mouse PE
[2] = molecular target: T1, mouse αvβ8 on β8 LLC cells (Lewis lung carcinoma cells transfected with mouse itgb8) (mouse) (UniProt P43406+Q0VBD0); test: flow cytometry on β8 LLC and mock LLC cells
[3] = molecular target: T1, mouse αvβ8 on β8 LLC cells (Lewis lung carcinoma cells transfected with mouse itgb8) (mouse); test: flow cytometry on β8 LLC cells

Binder	binding [1]	binding [2]	binding [3]
B1	binds	binds	
B2		binds	
B3		binds	
B4		binds	binds
B5		binds	binds
